Assay results taken from patent US20240208979A1, “sGC STIMULATORS” (Tisento Therapeutics Inc., priority 2021, published 2024).
At least one structure is not confirmed: it was looked up by name or label, or the drawing left a doubt.

Tested on: normotensive rats
Experiment: Blood pressure effects in normotensive rats following acute oral dose
Type: in vivo, rat
Protocol: Male, normotensive Sprague Dawley rats were purchased from Charles River Laboratories. These rats have indwelling femoral artery catheters installed. Animals were harnessed to a tether system and attached to pressure transducers to monitor cardiovascular (CV) parameters, specifically mean arterial pressure (MAP) and heart rate (HR). Animals were acclimated to the system overnight and baseline CV parameters collected. The conscious, freely moving rats were then administered a single oral dose of the Compound I-14 (doses generated from the sodium salt of Compound 14) in Milli-Q water at 1, 3, 10 and 30 mg/kg. A blood sample was collected from each animal through the catheter line at pre-dose and 2 hours post-dose for compound concentration quantification. Hemodynamic measures were recorded for ten hours post-dose. Fifty-four male rats were used for these studies and they were ordered to be received at a body weight range of 250-275 grams. […]
ADInstruments LabChart (v8) was used to monitor and export hemodynamic data. Blood pressure and heart rate were continuously monitored, and data were collected at 1000 data points per second then averaged into 10-minute bins for analysis. Change from baseline MAP (ΔBMAP) and HR (ΔBHR) were calculated using the pre-dose baseline averaged over the 1-hr period prior to dosing using Microsoft Excel for Microsoft 365. […]
Statistical analyses were performed in Graphpad Prism (v8). Significance, as compared to vehicle-treated rats, for ΔBMAP and ΔBHR data was determined by 2-way repeated measures ANOVA followed by a Dunnett's multiple comparisons test, if there was a missing data point, a mixed-effect analysis was utilized. Vehicle-adjusted MAP (ΔVMAP) was calculated by subtracting ΔBMAP of the vehicle group from the ΔBMAP of each dose group at each timepoint. Vehicle-adjusted HR (ΔVHR) was calculated in a similar manner to ΔVMAP.
Significance of AOC data were determined by one-way ANOVA followed by a Dunnett's multiple comparisons test as compared to vehicle. […]

Oc1nc(-c2cn3ccnc3c(Cc3cc(F)ccc3F)n2)ncc1F [Compound I-20, 5-fluoro-2-(8-(2,5-difluorobenzyl)imidazo[1,2-a]pyrazin-6-yl)pyrimidin-4-ol]
effect on MAP from baseline and as adjusted from vehicle (1, 3, 10, and 30 mg/kg single oral dose, Milli-Q water): lowered MAP | effect on MAP from baseline (1, 3 or 10 mg/kg, formulated in methylcellulose): able to reduce MAP from baseline at all doses tested | change from baseline MAP (ΔBMAP) compared with vehicle-treated rats (single oral dose 1, 3, 10 and 30 mg/kg, Milli-Q water, 2-way ANOVA significant): greater decrease in MAP
